For 1 molecule, binding results are on record in publication PMC6482240.

These are yes or no findings as the source states them, for the method shown. Binding seen in cells or lysates may run through a third protein. Some results given as binding are weak or reduced against the parent protein; the word gives no strength. Sequences can lack the tags named with a protein.

The target of one assay is T1, GST-mGlu1 (-KQSSSTL).
T1 sequence: KQSSSTL
Description: pull-down; GST-fused C-terminal heptapeptides on glutathione Sepharose 4B beads, incubated with lysate containing MAL-PDZ Tamalin; 1 mg/mL BSA, PTx buffer (PBS, 0.1% Triton X-100, pH 7.4), 4 h at 4°C, with or without synthetic peptides; retained MAL-PDZ Tamalin read by dot blot array with anti-MAL antibody; only the target purified.

A further assay has as its target T2, GST-mGlu5 (-TQSSSSL).
T2 sequence: TQSSSSL
Described as above.

B1: MAL-PDZ Tamalin (domain or fragment, UniProt Q8R4T5 100-190)
chain: VLTLEKGDNQTFGFEIQTYGLHHREEQRVEMVTFVCRVHESSPAQLAGLTPGDTIASVNGLNVEGIRHREIVDIIKASGNVLRLETLYGTS
In the case of B1, the binding result with GST-mGlu1 (-KQSSSTL) and with GST-mGlu5 (-TQSSSSL) was “binds” in each case.
